# Reference: patent publication US11781984B2, “Fluorescent method to quantify copper or platinum based on catalysis” (University of Pittsburgh—Of the Commonwealth System of …, priority 2018, dated 2023)
# Assays:
# [1] = Pt standard curve (APE/TFPP), LOD, LOQ and recovery of unknowns
# [2] = Limit of detection and quantification of copper-mediated depropargylation of PPE; details: 20 μM PPE, 100 μM DMAPPP, borate pH 8.5, 2 h, 25° C.
# [3] = Quantification of cisplatin in protein-free serum (APE/TFPP); details: 400 μM TFPP, 20 μM APE, pH 7.8, 45° C., 1 h
# [4] = 20 μM APE, 400 μM TFPP, pH 7.8, 1 h incubation
molecule,measurement,setting,value
allyl Pittsburgh Green ether [APE],limit of detection (LOD) for platinum,[1]; [4],5.5 nM
same,limit of quantification (LOQ) for platinum,[1]; [4],18.3 nM
same,percent recoveries of unknown platinum samples,"[1]; double-blind, 4 of 6 samples",90-115%
Propargyl Pittsburgh Green ether [PPE],limit of detection (LOD) for copper,[2],4.5 nM
same,limit of quantification (LOQ) for copper,[2],15.1 nM
N.N.[Cl][Pt][Cl] [cisplatin],LOD of cisplatin in serum,[3],120 nM
same,LOQ of cisplatin in serum,[3],410 nM
